Data source: PubChem BioAssay AID1671195 (Yale University, 2021)
Shown is a random part of about 22,000 reagents tested. In the full data, about 1,510 (6.9%) got an active call. 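Active includes knockdowns raising or lowering LDL uptake; positive z-scores mean more uptake, negative mean less.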 A number with no mark means an inactive call. The numbers tell different reagents against one gene apart.

Purpose: 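Regulators of LDL receptor activity judged by labelled LDL uptake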 (primary screen)
Cell system: human Huh7 hepatoma cells
Reagents: siRNA pool against human genes, 18 nM
Time to read-out: about 2 to 2.5 days of knockdown, then 8 h LDL uptake
Challenge: DiI-labelled LDL at 30 µg/ml for 8 h, in lipoprotein-deficient serum medium
Measured: 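Fluorescent LDL signal imaged in cells, scaled to the plate median, robust z-score for each replicate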
Direction: robust z-score: higher = more LDL uptake after knockdown
Call rule: 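Active when two or more replicates show a robust z-score above 2 or below -2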

"robust z-score, replicate 1","robust z-score, replicate 2","robust z-score, replicate 3",Target gene,reagent no.
2.54 (active),3.3,2.82,FAM124A (GeneID 220108),1
-0.096,0.0489,0.0625,SENP2 (GeneID 59343),1
-0.167,0.391,0.532,RNF24 (GeneID 11237),1
-0.31,-0.532,-0.356,LOC389067 (retired record) (GeneID 389067),1
-0.892,-1.03,-0.551,PLPP3 (GeneID 8613),1
-2.38 (active),-0.943,-3.02,STRN4 (GeneID 29888),1
-0.207,-0.0989,-0.0426,ERVFC1-1 (GeneID 346547),1
-1.57,-1.79,-1.12,SYT11 (GeneID 23208),1
-0.0322,-0.0254,0.0358,SKIL (GeneID 6498),1
0.365,-0.805,1.48,GAS2L1 (GeneID 10634),1
-1.6,-1.29,-0.118,TEKT1 (GeneID 83659),1
1.54,0.901,1.9,EGLN1 (GeneID 54583),1
-2.02 (active),-2.41,-2.2,ARHGAP42 (GeneID 143872),1
-1.01,-1.69,-0.954,ARHGAP42 (GeneID 143872),2
-1.03,-0.0338,0.804,NYNRIN (GeneID 57523),1
-1.52,-1.49,-1.56,PAH (GeneID 5053),1
-0.799,-0.329,-0.764,GMPS (GeneID 8833),1
1.41,1.04,0.942,BIRC6 (GeneID 57448),1
1.07,0.746,-0.291,TRPC1 (GeneID 7220),1
-0.0961,-0.223,-0.316,LOC441493 (retired record) (GeneID 441493),1
-0.0217,-0.261,-0.146,LINC00550 (GeneID 338862),1
1.73,1.72,0.704,CSN2 (GeneID 1447),1
0.852,0.707,-0.486,EPS8L1 (GeneID 54869),1
0.271,0.343,-0.172,PRKAG3 (GeneID 53632),1
-0.361,-0.256,-0.127,LOC283029 (retired record) (GeneID 283029),1
1.24,1.45,1.33,TEAD1 (GeneID 7003),1
-0.0477,-0.333,-0.447,SNRK (GeneID 54861),1
-0.272,-0.0934,-0.344,MON1A (GeneID 84315),1

Reprinted from the entries so far, 3 entries:
"robust z-score, replicate 1","robust z-score, replicate 2","robust z-score, replicate 3",Target gene,reagent no.
-0.0217,-0.261,-0.146,LINC00550 (GeneID 338862),1
1.73,1.72,0.704,CSN2 (GeneID 1447),1
0.852,0.707,-0.486,EPS8L1 (GeneID 54869),1
